In PMC4858180 one finds binding data, which are given here for three substances.

Sequences of proteins named here, by UniProt entry; tags and fusion partners are left off. A change or cut given only in a name is not applied to a line headed by its entry. Residues count along the entry.
UniProt O08689: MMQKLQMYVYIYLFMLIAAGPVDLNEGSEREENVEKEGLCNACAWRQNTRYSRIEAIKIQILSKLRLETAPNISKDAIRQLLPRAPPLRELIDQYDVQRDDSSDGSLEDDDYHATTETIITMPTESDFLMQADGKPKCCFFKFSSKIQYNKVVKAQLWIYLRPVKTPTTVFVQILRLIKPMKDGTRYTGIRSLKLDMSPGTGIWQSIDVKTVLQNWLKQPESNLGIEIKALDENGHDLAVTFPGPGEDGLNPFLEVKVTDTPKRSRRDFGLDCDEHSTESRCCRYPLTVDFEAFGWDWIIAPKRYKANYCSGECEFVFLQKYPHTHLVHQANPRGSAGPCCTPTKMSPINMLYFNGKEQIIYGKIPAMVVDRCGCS
UniProt Q8N2S1, residues 28-1624: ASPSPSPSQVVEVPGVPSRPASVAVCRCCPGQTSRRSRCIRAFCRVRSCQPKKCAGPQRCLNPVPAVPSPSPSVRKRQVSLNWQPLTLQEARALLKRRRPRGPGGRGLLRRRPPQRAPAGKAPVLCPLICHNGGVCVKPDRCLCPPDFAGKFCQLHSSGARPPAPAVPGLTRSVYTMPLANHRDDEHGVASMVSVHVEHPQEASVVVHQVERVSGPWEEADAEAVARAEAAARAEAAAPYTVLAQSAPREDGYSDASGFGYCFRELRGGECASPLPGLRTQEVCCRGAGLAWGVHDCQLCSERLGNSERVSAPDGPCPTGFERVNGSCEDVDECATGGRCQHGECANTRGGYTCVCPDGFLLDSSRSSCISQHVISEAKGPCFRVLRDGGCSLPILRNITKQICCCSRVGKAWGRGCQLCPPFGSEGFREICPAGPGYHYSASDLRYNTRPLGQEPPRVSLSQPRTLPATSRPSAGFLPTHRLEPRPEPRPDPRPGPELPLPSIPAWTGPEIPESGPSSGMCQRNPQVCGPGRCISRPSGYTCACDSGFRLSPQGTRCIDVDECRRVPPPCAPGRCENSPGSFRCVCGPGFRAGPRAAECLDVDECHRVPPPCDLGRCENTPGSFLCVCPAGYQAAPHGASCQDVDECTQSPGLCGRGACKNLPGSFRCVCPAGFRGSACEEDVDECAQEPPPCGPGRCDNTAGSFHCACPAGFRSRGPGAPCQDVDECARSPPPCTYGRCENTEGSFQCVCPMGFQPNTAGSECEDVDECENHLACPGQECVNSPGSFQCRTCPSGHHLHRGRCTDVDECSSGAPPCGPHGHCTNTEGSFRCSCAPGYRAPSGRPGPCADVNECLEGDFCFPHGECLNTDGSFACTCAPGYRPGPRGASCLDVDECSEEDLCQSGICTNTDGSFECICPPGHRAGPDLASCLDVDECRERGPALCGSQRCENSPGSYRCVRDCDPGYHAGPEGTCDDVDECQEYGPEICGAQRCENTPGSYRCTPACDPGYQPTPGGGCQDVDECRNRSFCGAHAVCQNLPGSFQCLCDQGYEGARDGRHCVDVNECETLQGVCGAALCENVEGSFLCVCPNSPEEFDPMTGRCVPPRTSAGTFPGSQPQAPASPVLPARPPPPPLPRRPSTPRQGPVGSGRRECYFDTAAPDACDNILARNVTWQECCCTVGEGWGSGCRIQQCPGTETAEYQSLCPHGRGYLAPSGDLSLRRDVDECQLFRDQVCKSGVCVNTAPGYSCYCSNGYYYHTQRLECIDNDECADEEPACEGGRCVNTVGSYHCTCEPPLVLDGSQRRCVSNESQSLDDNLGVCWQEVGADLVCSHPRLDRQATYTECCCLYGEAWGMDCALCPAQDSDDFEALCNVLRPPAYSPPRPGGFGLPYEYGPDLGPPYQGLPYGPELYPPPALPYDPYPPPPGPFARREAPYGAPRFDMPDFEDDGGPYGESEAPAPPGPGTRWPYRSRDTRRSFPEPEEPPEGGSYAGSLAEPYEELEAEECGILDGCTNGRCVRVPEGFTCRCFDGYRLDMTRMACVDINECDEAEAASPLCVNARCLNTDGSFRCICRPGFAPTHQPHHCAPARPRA
UniProt Q8K4G1, residues 25-1666: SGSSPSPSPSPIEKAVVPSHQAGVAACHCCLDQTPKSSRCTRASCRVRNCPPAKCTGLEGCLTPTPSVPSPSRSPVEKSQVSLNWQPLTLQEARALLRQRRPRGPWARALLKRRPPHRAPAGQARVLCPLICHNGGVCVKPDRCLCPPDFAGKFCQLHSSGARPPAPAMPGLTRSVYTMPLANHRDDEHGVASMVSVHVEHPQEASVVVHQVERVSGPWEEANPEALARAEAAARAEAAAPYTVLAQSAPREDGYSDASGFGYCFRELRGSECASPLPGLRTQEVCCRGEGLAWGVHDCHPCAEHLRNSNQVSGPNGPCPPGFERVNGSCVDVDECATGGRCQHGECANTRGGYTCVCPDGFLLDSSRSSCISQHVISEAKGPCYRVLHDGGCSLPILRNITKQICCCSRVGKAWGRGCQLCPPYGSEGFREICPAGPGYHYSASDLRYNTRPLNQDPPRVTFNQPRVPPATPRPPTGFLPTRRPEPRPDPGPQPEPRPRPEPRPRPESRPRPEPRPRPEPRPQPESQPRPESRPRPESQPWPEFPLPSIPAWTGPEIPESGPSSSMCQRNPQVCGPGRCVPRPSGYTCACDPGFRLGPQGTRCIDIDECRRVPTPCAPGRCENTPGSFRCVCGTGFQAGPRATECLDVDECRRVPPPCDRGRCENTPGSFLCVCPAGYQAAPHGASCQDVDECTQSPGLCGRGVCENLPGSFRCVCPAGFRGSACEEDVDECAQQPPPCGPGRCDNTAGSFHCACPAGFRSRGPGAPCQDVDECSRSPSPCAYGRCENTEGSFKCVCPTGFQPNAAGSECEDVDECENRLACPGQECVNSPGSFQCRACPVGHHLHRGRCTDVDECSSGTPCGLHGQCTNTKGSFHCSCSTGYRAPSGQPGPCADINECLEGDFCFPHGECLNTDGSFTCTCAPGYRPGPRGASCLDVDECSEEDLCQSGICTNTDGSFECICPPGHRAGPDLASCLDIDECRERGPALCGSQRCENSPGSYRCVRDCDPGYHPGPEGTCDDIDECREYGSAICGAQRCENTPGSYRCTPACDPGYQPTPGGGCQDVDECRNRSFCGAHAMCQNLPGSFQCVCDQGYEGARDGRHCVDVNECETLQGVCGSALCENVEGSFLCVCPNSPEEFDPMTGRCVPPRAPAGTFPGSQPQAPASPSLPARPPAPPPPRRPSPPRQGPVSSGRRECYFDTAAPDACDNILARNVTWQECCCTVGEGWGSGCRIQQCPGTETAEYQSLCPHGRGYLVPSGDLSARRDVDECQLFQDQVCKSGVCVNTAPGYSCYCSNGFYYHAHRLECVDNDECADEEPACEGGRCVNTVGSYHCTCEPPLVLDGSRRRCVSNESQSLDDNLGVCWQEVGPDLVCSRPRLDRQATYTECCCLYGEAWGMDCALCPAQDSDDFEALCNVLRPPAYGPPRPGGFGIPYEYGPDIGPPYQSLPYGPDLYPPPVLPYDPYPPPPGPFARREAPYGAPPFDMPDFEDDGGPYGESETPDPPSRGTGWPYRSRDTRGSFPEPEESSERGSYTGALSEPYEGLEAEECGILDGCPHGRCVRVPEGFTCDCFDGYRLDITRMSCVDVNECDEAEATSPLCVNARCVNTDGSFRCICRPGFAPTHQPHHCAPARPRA
UniProt O14793: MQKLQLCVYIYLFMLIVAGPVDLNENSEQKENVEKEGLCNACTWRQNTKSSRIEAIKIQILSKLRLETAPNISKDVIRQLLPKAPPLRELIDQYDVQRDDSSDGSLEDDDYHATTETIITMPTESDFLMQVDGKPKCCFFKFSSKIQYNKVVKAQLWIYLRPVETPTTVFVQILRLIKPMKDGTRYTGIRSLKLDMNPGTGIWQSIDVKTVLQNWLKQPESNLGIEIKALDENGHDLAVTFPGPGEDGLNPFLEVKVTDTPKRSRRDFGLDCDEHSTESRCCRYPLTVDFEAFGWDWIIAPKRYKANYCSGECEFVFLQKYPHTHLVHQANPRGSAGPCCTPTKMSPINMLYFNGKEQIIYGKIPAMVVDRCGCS

Results are given in words; binding and its absence hold for the method and conditions named. In cells and extracts the contact can be indirect. A result given as binding can be weak or reduced; the word gives no strength.

Test [1] concerns the target myostatin (endogenous, mouse skeletal muscle) (mouse (endogenous in muscle)) (UniProt O08689). As to the kind of experiment: co-IP; mouse muscle lysates (combined limb muscles of 10 week old wildtype and TG+ mice), 1 mg lysate; immunoprecipitated with anti-myostatin antibody (EMD Millipore AB3239-I), immunoblotted with anti-LTBP4; control without precipitating antibody; 4°C. (In western blotting, separated proteins are transferred to a membrane and probed.)

Test [2] concerns the target full length human LTBP4 with amino-terminal Xpress tag (human) (UniProt Q8N2S1). Kind of test: co-IP; lysates of co-transfected HEK293T cells (150 mM NaCl, 50 mM Tris HCl pH 8, 0.1% Triton X-100), 500 μg lysate; immunoprecipitated with anti-LTBP4 antibody, immunoblotted with anti-myc; control without precipitating antibody; 4°C.

Turning to “LTBP4 (endogenous, wildtype mouse skeletal muscle) (from UniProt Q8K4G1 25-1666)”, the binding entry in test [1] is on record as “binds”.

“human myostatin with carboxy-terminal Myc tag (from UniProt O14793)”: the binding result in test [2] was “binds”. Regarding “mouse LTBP4 transgene product (HSA-LTBP4, protective allele) with carboxy-terminal Xpress tag, in TG+ muscle (from UniProt Q8K4G1 25-1666)”, the binding result in test [1] is on record as “binds”.
